The values that follow come from patent publication US20110301101 (published 2011).

The series is described as follows: general procedure: Fmoc solid-phase peptide synthesis; Fmoc-Val-Wang resin. The following applies: whole synthesis.

Consider Phe-Leu-Pro-Ser-Asp-Phe-Phe-Pro-Ser-Val, for which the crude mass entry is “about 45 g” and the isolated mass is reported as 12.5 g. For the same substance, for the setting “total yield, scale of the general procedure 62.5 g resin”, the isolated yield result was “about 22%”.
